Patent publication US20100129290A1 (I.S.T. corporation, priority 2008, published 2010)

Assay: general procedure: Fmoc solid-phase peptide synthesis
Conditions: zwitterionic form

| Substance | final HPLC purity (whole synthesis, HPLC and MALDI mass spectrometry) | difficulty met (conjugation step) |
| --- | --- | --- |
| K(DO3A)K(FAM)PHGGGWGQK(dabcyl)K(DO3A) | >90% |  |
| K(FAM)PHGGGWGQK(dabcyl) |  | failed to produce acceptable product yields, because of poor selectivity of the reaction |
